# According to PubChem BioAssay AID504594 (Broad Institute, 2011):
# Screen size: about 2,000 compounds; fewer than 10 were called active.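 The calls were made as follows: active = growth inhibition of at least 75% in every replicate, which also brings the mean inhibition to 75% or more; inconclusive = mean inhibition 75% or more but some replicate under 75%; inactive = the rest.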 The list shows a part of the results.
# Test: growth inhibition of PfHsp90-dependent yeast, primary screen, antimalarial PfHsp90 inhibitor project, S. cerevisiae, BacTiter-Glo luminescence (AID 504594);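 also: 0% = DMSO neutral control wells and 100% = 20 µM radicicol control wells; higher value means stronger growth inhibition because the sign is flipped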
# Details: S. cerevisiae expressing PfHsp90, BacTiter-Glo growth, 48 h; at 9.4 µM; active compounds read high
row,SMILES,growth inhibition
1,COC(=O)c1ccccc1OCCOCCOc1cccc2ccc(C)nc12,inactive: -4.21%
2,O=C(CCCN1C(=O)/C(=C\c2cccc(Br)c2)SC1=S)Nc1cccnc1,inactive: 7.47%
3,CC1(C)c2ccccc2N2CC(=O)N(CC(N)=O)C21C (stereo not given),inactive: 10.5%
4,COCC(C)NC(=O)c1ccc(CN2CCc3ccccc3C2)cc1 (stereo not given),inactive: 8.71%
5,C[C@@H]1CCC[C@H](C)N1NC(=O)c1ccc(Cl)c(S(N)(=O)=O)c1,inactive: -3.25%
6,CC(C)C(CCN1C(=O)CCC1=O)C1CCOC(C)(C)C1 (stereo not given),inactive: -4.23%
7,Cc1ccc2[nH]c3c(=O)n(CCCN4CCN(C)CC4)cnc3c2c1,inactive: 2.95%
8,CC(C)[C@H](NC(=O)[C@@H]1CSCN1C(=O)OC(C)(C)C)C(=O)NCC1CCC(C(=O)O)CC1 (stereo not given in full),inactive: 6.5%
9,Cc1ccc2c(c1)c1c3n2CCCN(Cc2ccccc2)C3CCC1 (stereo not given),inactive: 0.335%
10,COc1ccc(C(=O)[C@H]2[C@H]3C(=O)N(c4ccccc4)C(=O)[C@H]3C3C=CC=NN32)cc1 (stereo not given in full),inactive: 15.9%
11,CCc1c(C)c2ccc(OCC(=O)OC(C)C)c(C)c2oc1=O,inactive: 4.15%
12,CC1=NS(=O)(=O)c2cc(Cl)ccc2N1,inactive: -13.6%
13,CC(C)NCC(O)COc1ccc(CC(N)=O)cc1 (stereo not given),inactive: 2.22%
14,CCOC(=O)[C@H]1O[C@@H]1C(=O)N[C@@H](CC(C)C)C(=O)NCCC(C)C,inactive: 6.21%
15,CC[C@H](CO)NCCN[C@H](CC)CO,inactive: -8.88%
16,Cc1ccccc1NC(=O)C1(C)Cc2ccccc2C(=O)O1 (stereo not given),inactive: 8.78%
17,Cc1cc(-c2nn(-c3ccccc3F)cc2CN2CCC(O)CC2)c(C)s1,inactive: 14.1%
18,OC(COCc1ccccc1)CN1CCN(Cc2ccc3c(c2)OCO3)CC1 (stereo not given),inactive: -0.683%
19,O=C(NCC1CCCO1)c1ccc(OC2CCN(C(=O)C3CC3)CC2)cc1 (stereo not given),inactive: -13.6%
20,O=C(O)C1CCN(C(=O)COc2ccc3c4c(c(=O)oc3c2)CCC4)CC1,inactive: 9.44%
21,CC1(C)CC(C(CC(=O)N2CCCC2)Cc2ccccc2)CCO1 (stereo not given),inactive: -4.75%
22,Cc1ccc(OCc2nc(-c3cccnc3)no2)cc1C,inactive: -16.7%
23,Nc1cnn(C2OC(CO)C(O)C2O)c(=O)n1 (stereo not given),inactive: -3.71%

row,SMILES,growth inhibition
1,O=C(OCC1OC2OC3(CCCCC3)OC2C2OC3(CCCCC3)OC12)c1ccccc1 (stereo not given),inactive: -3.4%
2,c1ccc2c3c(c(CN4CCCCC4)cc2c1)COC3,inactive: 0.356%
3,Cc1ccc(CSCC(=O)N2CCCC2)cc1,inactive: -5.17%
4,CCC(C(=O)Nc1ccc2c(c1)OCCO2)c1ccccc1 (stereo not given),inactive: -7.31%
5,Cc1ccc(C2CC(=O)C(C=NCCN3CCN(C(=S)Nc4ccccc4)CC3)=C(O)C2)cc1 (stereo not given),inactive: 5.87%
6,COc1ccc(C2C(C#N)=C(N)Oc3cc(C)[nH]c(=O)c32)c(OC)c1OC (stereo not given),inactive: -8.42%
7,CCC1(c2ccccc2)C(=O)NCNC1=O,inactive: 9.69%
8,O=C(CSCc1ccccc1)NCCCN1CCOCC1,inactive: 7.68%
9,CCOc1ccc(NC(=O)N[C@@H](CCSC)C(=O)OC)cc1,inactive: -22.7%
10,C[C@]12CCC(=O)C=C1CC[C@@H]1[C@@H]2CC[C@@]2(C)[C@H]1CC[C@]2(O)C(=O)CO,inactive: -15.5%
11,Cc1oc2ccc(OC(=O)c3cccs3)cc2c1C(=O)OC(C)C,inactive: 20%
12,COc1ccc(C2NCCC3(O)CCCCC23)c(OC)c1OC (stereo not given),inactive: -8.77%
13,c1ccc(-c2ccc(C(c3ccccc3)n3ccnc3)cc2)cc1 (stereo not given),active: 91.6%
14,CN(C)CCC(c1ccc(Br)cc1)c1ccccn1 (stereo not given),inactive: 1.8%
15,CC(=O)NC1C(OCc2ccccc2)OC(COC(C)=O)C(OC(C)=O)C1OC(C)=O (stereo not given),inactive: -4.4%
16,CC(=O)[C@@]1(O)CC[C@H]2[C@@H]3CCC4=CC(=O)CC[C@]4(C)[C@H]3CC[C@@]21C,inactive: 1.16%
17,CC(C)CC(=O)N(Cc1ccc(F)cc1)C1CCS(=O)(=O)C1 (stereo not given),inactive: -4.59%
18,COc1ccccc1NC(=O)Cn1c(C)cc(=O)c2cccc(OC)c21,inactive: -4.81%
19,O=C(/C=C/c1ccc(Cl)cc1)NCCc1ccccc1,inactive: -7.92%
20,COc1ccc(-c2nc3c(=O)n(C)c(=O)[nH]c3n2CCc2ccccc2)cc1,inactive: -11.2%
21,CCN(CC)C(=O)c1ccc(O)c(OC)c1,inactive: -8.19%
22,CC1(C)CC(NCc2ccccc2)CCO1 (stereo not given),inactive: -19.1%

# Two of these compounds, set out differently.
row	SMILES	growth inhibition
11	Cc1oc2ccc(OC(=O)c3cccs3)cc2c1C(=O)OC(C)C	inactive: 20%
22	CC1(C)CC(NCc2ccccc2)CCO1 (stereo not given)	inactive: -19.1%
